# Assay results published in the supplement of paper PMC8728848.
# The other results are listed elsewhere or left out.
# Key:
# Assay in all cases: glycan array binding signal (z-score within array); higher = stronger binding
# Conditions in all cases: glycan notation: IUPAC condensed, linker removed
# [1] = molecular target: Fuc(a1-2)Gal(b1-4)[Fuc(a1-3)]GlcNAc(b1-3)Gal(b1-4)[Fuc(a1-3)]GlcNAc
# Procedure, shortened: (§1)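 Glycan array binding is given as a within-array Z-score, which can be read as non-binding when negative. The arrays, 3228 of them, came from the Consortium for Functional Glycomics database and were retained only where the protein sequence was available. Z-scores were averaged across arrays of the same protein sequence at different concentrations or buffers and across linkers.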
# [2] = molecular target: Fuc(a1-2)Gal(b1-4)[Fuc(a1-3)]GlcNAc(b1-3)Gal(b1-4)[Fuc(a1-3)]GlcNAc(b1-3)Gal(b1-4)[Fuc(a1-3)]GlcNAc
# Procedure, shortened: as §1
# [3] = molecular target: Fuc(a1-2)Gal(b1-4)[Fuc(a1-3)]GlcNAc(b1-3)GalNAc
# Procedure, shortened: as §1
# [4] = molecular target: Fuc(a1-2)Gal(b1-4)[Fuc(a1-3)]GlcNAc(b1-3)[Neu5Ac(a2-6)Gal(b1-4)GlcNAc(b1-6)]Gal(b1-4)Glc
# Procedure, shortened: as §1
# [5] = molecular target: Fuc(a1-2)Gal3S(b1-4)GlcNAc
# Procedure, shortened: as §1
# [6] = molecular target: Fuc(a1-2)Gal6S(b1-3)GlcNAc
# Procedure, shortened: as §1
# [7] = molecular target: Fuc(a1-2)Gal6S(b1-3)GlcNAc6S
# Procedure, shortened: as §1
# Fuc(a1-2)Gal6S(b1-4)Glc = molecular target: Fuc(a1-2)Gal6S(b1-4)Glc
# Procedure, shortened: as §1
# [8] = molecular target: Fuc(a1-2)Gal6S(b1-4)Glc6S
# Procedure, shortened: as §1
# [9] = molecular target: Fuc(a1-2)Gal6S(b1-4)GlcNAc
# Procedure, shortened: as §1
# Fuc(a1-2)[Gal(a1-3)]Gal = molecular target: Fuc(a1-2)[Gal(a1-3)]Gal
# Procedure, shortened: as §1
# [10] = molecular target: Fuc(a1-2)[Gal(a1-3)]Gal(b1-3)GalNAc
# Procedure, shortened: as §1
# [11] = molecular target: Fuc(a1-2)[Gal(a1-3)]Gal(b1-3)GalNAc(b1-3)Gal(a1-4)Gal(b1-4)Glc
# Procedure, shortened: as §1
# [12] = molecular target: Fuc(a1-2)[Gal(a1-3)]Gal(b1-3)GlcNAc
# Procedure, shortened: as §1
# [13] = molecular target: Fuc(a1-2)[Gal(a1-3)]Gal(b1-3)GlcNAc(b1-2)Man(a1-3)[Fuc(a1-2)[Gal(a1-3)]Gal(b1-3)GlcNAc(b1-2)Man(a1-6)]Man(b1-4)GlcNAc(b1-4)GlcNAc
# Procedure, shortened: as §1
# [14] = molecular target: Fuc(a1-2)[Gal(a1-3)]Gal(b1-3)GlcNAc(b1-2)Man(a1-3)[Fuc(a1-2)[Gal(a1-3)]Gal(b1-3)GlcNAc(b1-2)Man(a1-6)]Man(b1-4)GlcNAc(b1-4)[Fuc(a1-6)]GlcNAc
# Procedure, shortened: as §1
# [15] = molecular target: Fuc(a1-2)[Gal(a1-3)]Gal(b1-3)GlcNAc(b1-3)GalNAc
# Procedure, shortened: as §1
# [16] = molecular target: Fuc(a1-2)[Gal(a1-3)]Gal(b1-3)GlcNAc(b1-6)GalNAc
# Procedure, shortened: as §1
# [17] = molecular target: Fuc(a1-2)[Gal(a1-3)]Gal(b1-4)Glc
# Procedure, shortened: as §1
# [18] = molecular target: Fuc(a1-2)[Gal(a1-3)]Gal(b1-4)GlcNAc
# Procedure, shortened: as §1
# [19] = molecular target: Fuc(a1-2)[Gal(a1-3)]Gal(b1-4)GlcNAc(b1-2)Man
# Procedure, shortened: as §1
# [20] = molecular target: Fuc(a1-2)[Gal(a1-3)]Gal(b1-4)GlcNAc(b1-2)Man(a1-3)[Fuc(a1-2)[Gal(a1-3)]Gal(b1-4)GlcNAc(b1-2)Man(a1-6)]Man(b1-4)GlcNAc(b1-4)GlcNAc
# Procedure, shortened: as §1
# [21] = molecular target: Fuc(a1-2)[Gal(a1-3)]Gal(b1-4)GlcNAc(b1-2)Man(a1-3)[Fuc(a1-2)[Gal(a1-3)]Gal(b1-4)GlcNAc(b1-2)Man(a1-6)]Man(b1-4)GlcNAc(b1-4)[Fuc(a1-6)]GlcNAc
# Procedure, shortened: as §1
# [22] = molecular target: Fuc(a1-2)[Gal(a1-3)]Gal(b1-4)GlcNAc(b1-3)GalNAc
# Procedure, shortened: as §1
# [23] = molecular target: Fuc(a1-2)[Gal(a1-3)]Gal(b1-4)GlcNAc(b1-6)GalNAc
# Procedure, shortened: as §1
# [24] = molecular target: Fuc(a1-2)[Gal(a1-3)]Gal(b1-4)[Fuc(a1-3)]Glc
# Procedure, shortened: as §1
# [25] = molecular target: Fuc(a1-2)[Gal(a1-3)]Gal(b1-4)[Fuc(a1-3)]GlcNAc
# Procedure, shortened: as §1
# [26] = molecular target: Fuc(a1-2)[Gal(a1-3)]Gal(b1-4)[Fuc(a1-3)]GlcNAc(b1-3)GalNAc
# Procedure, shortened: as §1
# [27] = molecular target: Fuc(a1-2)[Gal(a1-4)]Gal(b1-4)GlcNAc
# Procedure, shortened: as §1
# [28] = molecular target: Fuc(a1-2)[GalNAc(a1-3)]Gal
# Procedure, shortened: as §1
# [29] = molecular target: Fuc(a1-2)[GalNAc(a1-3)]Gal(b1-3)GalNAc(a1-3)[Fuc(a1-2)]Gal(b1-4)GlcNAc
# Procedure, shortened: as §1
# [30] = molecular target: Fuc(a1-2)[GalNAc(a1-3)]Gal(b1-3)GalNAc(b1-3)Gal(a1-4)Gal(b1-4)Glc
# Procedure, shortened: as §1
# [31] = molecular target: Fuc(a1-2)[GalNAc(a1-3)]Gal(b1-3)GlcNAc
# Procedure, shortened: as §1
# [32] = molecular target: Fuc(a1-2)[GalNAc(a1-3)]Gal(b1-3)GlcNAc(b1-2)Man(a1-3)[Fuc(a1-2)[GalNAc(a1-3)]Gal(b1-3)GlcNAc(b1-2)Man(a1-6)]Man(b1-4)GlcNAc(b1-4)GlcNAc
# Procedure, shortened: as §1
# [33] = molecular target: Fuc(a1-2)[GalNAc(a1-3)]Gal(b1-3)GlcNAc(b1-2)Man(a1-3)[Fuc(a1-2)[GalNAc(a1-3)]Gal(b1-3)GlcNAc(b1-2)Man(a1-6)]Man(b1-4)GlcNAc(b1-4)[Fuc(a1-6)]GlcNAc
# Procedure, shortened: as §1
# [34] = molecular target: Fuc(a1-2)[GalNAc(a1-3)]Gal(b1-3)GlcNAc(b1-3)GalNAc
# Procedure, shortened: as §1
# [35] = molecular target: Fuc(a1-2)[GalNAc(a1-3)]Gal(b1-3)GlcNAc(b1-6)GalNAc
# Procedure, shortened: as §1
# [36] = molecular target: Fuc(a1-2)[GalNAc(a1-3)]Gal(b1-4)Glc
# Procedure, shortened: as §1
# [37] = molecular target: Fuc(a1-2)[GalNAc(a1-3)]Gal(b1-4)GlcNAc
# Procedure, shortened: as §1
# [38] = molecular target: Fuc(a1-2)[GalNAc(a1-3)]Gal(b1-4)GlcNAc(b1-2)Man
# Procedure, shortened: as §1
# [39] = molecular target: Fuc(a1-2)[GalNAc(a1-3)]Gal(b1-4)GlcNAc(b1-2)Man(a1-3)[Fuc(a1-2)[GalNAc(a1-3)]Gal(b1-4)GlcNAc(b1-2)Man(a1-6)]Man(b1-4)GlcNAc(b1-4)GlcNAc
# Procedure, shortened: as §1
# [40] = molecular target: Fuc(a1-2)[GalNAc(a1-3)]Gal(b1-4)GlcNAc(b1-2)Man(a1-3)[Fuc(a1-2)[GalNAc(a1-3)]Gal(b1-4)GlcNAc(b1-2)Man(a1-6)]Man(b1-4)GlcNAc(b1-4)[Fuc(a1-6)]GlcNAc
# Procedure, shortened: as §1
# [41] = molecular target: Fuc(a1-2)[GalNAc(a1-3)]Gal(b1-4)GlcNAc(b1-3)Gal(b1-4)GlcNAc
# Procedure, shortened: as §1
# [42] = molecular target: Fuc(a1-2)[GalNAc(a1-3)]Gal(b1-4)GlcNAc(b1-3)Gal(b1-4)GlcNAc(b1-3)Gal(b1-4)GlcNAc
# Procedure, shortened: as §1
# [43] = molecular target: Fuc(a1-2)[GalNAc(a1-3)]Gal(b1-4)GlcNAc(b1-3)GalNAc
# Procedure, shortened: as §1
binder,measurement,setting,value
"Gal 10 (Homo sapiens), Q05315 (protein) MSLLPVPYTEAASLSTGSTVTIKGRPLVCFLNEPYLQVDFHTEMKEESDIVFHFQVCFGRRVVMNSREYGAWKQQVESKNMPFQDGQEFELSISVLPDKYQVMVNGQSSYTFDHRIKPEAVKMVQVWRDISLTKFNVSYLKR",glycan array binding signal (z-score),[1],-1.35
same,glycan array binding signal (z-score),[2],1.07
same,glycan array binding signal (z-score),[3],2.13
same,glycan array binding signal (z-score),[4],-0.624
same,glycan array binding signal (z-score),[5],-0.518
same,glycan array binding signal (z-score),[6],-0.264
same,glycan array binding signal (z-score),[7],0.571
same,glycan array binding signal (z-score),Fuc(a1-2)Gal6S(b1-4)Glc,1.38
same,glycan array binding signal (z-score),[8],-0.097
same,glycan array binding signal (z-score),[9],-0.128
same,glycan array binding signal (z-score),Fuc(a1-2)[Gal(a1-3)]Gal,-0.332
same,glycan array binding signal (z-score),[10],1.32
same,glycan array binding signal (z-score),[11],-0.636
same,glycan array binding signal (z-score),[12],0.328
same,glycan array binding signal (z-score),[13],-0.66
same,glycan array binding signal (z-score),[14],0.543
same,glycan array binding signal (z-score),[15],-0.445
same,glycan array binding signal (z-score),[16],-0.063
same,glycan array binding signal (z-score),[17],-0.179
same,glycan array binding signal (z-score),[18],-0.644
same,glycan array binding signal (z-score),[19],-0.269
same,glycan array binding signal (z-score),[20],0.256
same,glycan array binding signal (z-score),[21],1.39
same,glycan array binding signal (z-score),[22],-0.339
same,glycan array binding signal (z-score),[23],1.28
same,glycan array binding signal (z-score),[24],-0.338
same,glycan array binding signal (z-score),[25],-0.426
same,glycan array binding signal (z-score),[26],-0.183
same,glycan array binding signal (z-score),[27],-0.389
same,glycan array binding signal (z-score),[28],-0.25
same,glycan array binding signal (z-score),[29],-0.923
same,glycan array binding signal (z-score),[30],-0.64
same,glycan array binding signal (z-score),[31],0.276
same,glycan array binding signal (z-score),[32],0.476
same,glycan array binding signal (z-score),[33],-0.105
same,glycan array binding signal (z-score),[34],0.64
same,glycan array binding signal (z-score),[35],0.016
same,glycan array binding signal (z-score),[36],-0.504
same,glycan array binding signal (z-score),[37],-0.397
same,glycan array binding signal (z-score),[38],-0.035
same,glycan array binding signal (z-score),[39],-0.132
same,glycan array binding signal (z-score),[40],0.6
same,glycan array binding signal (z-score),[41],-0.116
same,glycan array binding signal (z-score),[42],0.348
same,glycan array binding signal (z-score),[43],1.76

# Quoted at random: 3 entries already listed.
binder,measurement,setting,value
"Gal 10 (Homo sapiens), Q05315 (protein) MSLLPVPYTEAASLSTGSTVTIKGRPLVCFLNEPYLQVDFHTEMKEESDIVFHFQVCFGRRVVMNSREYGAWKQQVESKNMPFQDGQEFELSISVLPDKYQVMVNGQSSYTFDHRIKPEAVKMVQVWRDISLTKFNVSYLKR",glycan array binding signal (z-score),[19],-0.269
same,glycan array binding signal (z-score),[37],-0.397
same,glycan array binding signal (z-score),[10],1.32
